This is an account of results in PubChem BioAssay AID2685 (National Center for Advancing Translational Sciences (NCATS), 2010).

The nature of the test: qHTS Assay for Lipid Storage Modulators in Drosophila S3 Cells.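 For cell number change: cells counted by Cell Tracker Red CMTPX staining in the red channel.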 The conditions noted are these: BODIPY lipid droplet fluorescence, 18-24 h; for cell number change: measured here: cell count max response, cells fed with added oleic acid. In a few lines: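 Drosophila S3 cells got compounds at several concentrations plus oleic acid (400 uM solution). Laser-scanning cytometry with 488 nm excitation read lipid droplets at 500-530 nm and cells at 575-640 nm. Percent activity was relative to 20 uM Triacsin C.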
On the technique in general: In qHTS, concentration-response curves come from the screen itself.

Where [1] appears, read: measured here: lipid fluorescence (Fed channel) AC50, cells fed with added oleic acid.
Where [2] appears, read: measured here: cell number channel AC50, cells fed with added oleic acid.

Some of the results follow. The main result of the screen is listed elsewhere. These columns were measured beside it and carry no call. Compounds called inactive in the main read-out are mostly missing here. Words in brackets tell the shape of the fitted curve; partial curves, single points and poor fits give uncertain potencies.

In the case of `C=CCOC(=O)C1=C(C)NC(=O)NC1c1ccc(OC(=O)c2ccco2)c(OC)c1` (stereo not drawn), the cell number change stood at 10.7%. Moreover, the AC50 under setting [1] was 6.51 µM [rising, single point].
As to `Cc1csc(SCC(=O)N2CCN(S(=O)(=O)c3ccc(Cl)cc3)CC2)n1`, under setting [1], the concentration at half-maximal activity (AC50) is 1.46 µM [rising, full curve].
Turning to `Cc1ccc(S(=O)(=O)N(CC(=O)Nc2cccc([N+](=O)[O-])c2)Cc2ccc(Cl)cc2)cc1`, the cell number change was 17.7%.
For the molecule `O=C(CSc1nc(C2CC2)nc2ccccc12)N1c2ccccc2Sc2ccc(C(F)(F)F)cc21`, the AC50 under setting [1] was 0.731 µM [rising, single point].
Turning to `COc1cccc(C2NC(=O)CCC2[N+](=O)[O-])c1OC` (stereo not drawn), the cell number change was -6.31%.
With `Cc1cccc2cc(/C=N/NC(=O)c3ccccc3O)c(Cl)nc12`, the cell number change is -23%. The AC50 under setting [1] is 3.66 µM [rising, partial curve].
Consider `COc1ccc(OC)c(CCNC(=O)c2ccc3c(=O)[nH]c4c(C(=O)NC(C)C)sc(=S)n4c3c2)c1`, for which the cell number change is -17.9%. Besides, under setting [1], the AC50 was 0.82 µM [falling, single point].
Turning to `COc1ccc(CN(C)C(=O)c2cccc(S(=O)(=O)N3CCN(c4ccccc4)CC3)c2)c(OC)c1OC`, the cell number change was determined as 8.05%.
On to `CCOc1ccc(N=C2NC(=O)C(CC(=O)O)S2)cc1` (stereo not drawn), for which the cell number change is 38.2%.
`O=C(c1cccc(S(=O)(=O)NCc2ccccc2)c1)N1CCCC1`: the AC50 under setting [1] was 0.00517 µM [rising, full curve, poor fit].
For `COC(=O)Cc1c[nH]c2ccc(OCC(O)CNC(C)C)cc12` (stereo not drawn), the cell number change is 2.92%. Also, the AC50 under setting [1] was 11.6 µM [falling, single point].
As for `Cn1c2c(c(=O)n(C)c1=O)C(C(F)(F)F)(C(F)(F)F)N=C(c1ccccc1Cl)N2`, the cell number change is -1.53%. In addition, the AC50 under setting [2] was 0.00517 µM [falling, full curve, poor fit].
As to `CC(/C=C/c1ccccc1F)=N\NC(=O)c1cccc(F)c1`, the AC50 under setting [1] was 1.46 µM [rising, partial curve].
Consider `O=C(Nc1cccc(Oc2ccc3c(c2)C(=O)NC3=O)c1)c1ccco1`, for which the cell number change was 36.7%. Besides, the half-maximal activity concentration (AC50) under setting [2] is 2.59 µM [rising, full curve]. The AC50 under setting [1] is 4.61 µM [rising, single point].
With `Cc1ccc(NC(=Nc2ccc(Br)cc2)N2CCOCC2)cc1C`, the cell number change was found to be 13.2%. Also, the AC50 under setting [1] was 3.66 µM [rising, full curve].
For the molecule `Cc1ccc(CN(C)C(=O)c2cc(COc3cccc(C(F)(F)F)c3)on2)o1`, the cell number change was -55%. The concentration at half-maximal activity (AC50) under setting [2] was 32.6 µM [falling, single point]. Further, the AC50 under setting [1] was 0.651 µM [rising, full curve].
Regarding `COc1ccc(OC)c2c(C)cc(NCCN3CCOCC3)nc12`, the cell number change worked out at 6.64%. In addition, under setting [1], the AC50 was 1.16 µM [rising, partial curve].
With `COCCn1c(SCC(=O)Nc2cc(C)on2)nnc1C(C)C`, the cell number change was 11.8%.
As to `CC(C)(C)c1ccc(OCC(O)CN(CCO)CC(O)Cn2ccc3ccccc32)cc1` (stereo not drawn), the cell number change was -27.5%. For the same molecule, under setting [1], the concentration at half-maximal activity (AC50) is 18.4 µM [falling, partial curve].
Turning to `O=C(NNc1ccc([N+](=O)[O-])cc1[N+](=O)[O-])C1C2CCCCC21` (stereo not drawn), the cell number change was determined as 9.84%. In addition, the concentration at half-maximal activity (AC50) under setting [1] was 1.46 µM [rising, partial curve].
For the molecule `COc1ccc(NC(=O)CSCC(=O)N(C)Cc2c(F)cccc2Cl)cc1`, the cell number change was -15.2%. The concentration at half-maximal activity (AC50) under setting [1] is 3.26 µM [falling, single point].
`Cc1cccc(OCCC(=O)NCC(c2ccco2)N2CCCCC2)c1` (stereo not drawn): the cell number change was determined as 49.2%. The AC50 under setting [2] was 29.1 µM [rising, single point].
As for `CCOC(=O)[C@H]1[C@H]2COc3ccc(OC)cc3[C@@H]2N2C(=O)CN(C)C(=O)[C@@]12C`, the cell number change amounted to 19.7%. Besides, under setting [1], the half-maximal activity concentration (AC50) is 1.64 µM [rising, partial curve, poor fit].
Turning to `CCN(CC)c1nc2n(c(=O)n1)CCO2`, the cell number change came to 2.73%. Under setting [1], the AC50 was 0.651 µM [rising, single point].
With `CC1(C)CCCN(Cc2c(O)ccc3c(=O)c(-c4nc5ccccc5s4)c(N)oc23)C1`, the cell number change stood at 20.9%. For the same molecule, the AC50 under setting [1] is 16.4 µM [falling, single point].
For `COc1ccccc1-n1nnnc1SCC(=O)Nc1ccc(C)c(N)c1`, the cell number change is -4.5%.
Same read-out and setting: for `O=C(NC1CCCCC1)N(Cc1cc2cc3c(cc2[nH]c1=O)OCCO3)CC1CCCO1` (stereo not drawn) the value was -27.6%.
Turning to `CCOC(=O)C1=CC[C@@H](c2ccco2)N(S(=O)(=O)c2ccc(C)cc2)[C@H]1C(=O)OCC`, the cell number change was -8.47%. The half-maximal activity concentration (AC50) under setting [2] was 1.16 µM [falling, single point].
Consider `CC1CN(C(=S)NC2CCCC2)CC(C)O1` (stereo not drawn), for which the cell number change was determined as 2.48%. The AC50 under setting [1] was 29.1 µM [falling, single point].
Regarding `CC(=O)Oc1cccc(NC(=O)c2ccc3c(c2)C(=O)N(CC(C)C)C3=O)c1`, the cell number change was -29.8%. Moreover, under setting [1], the AC50 is 0.206 µM [falling, full curve].
For `CC(=O)Nc1ccc(/C=N/NC(=O)CNS(=O)(=O)c2ccccc2)cc1`, under setting [1], the half-maximal activity concentration (AC50) was 29.1 µM [rising, single point].
`COc1cccc2cc(C(=O)CS(=O)(=O)c3ccc(Cl)cc3)c(=O)oc12`: the cell number change was -13.9%. The AC50 under setting [2] is 0.0058 µM [falling, full curve, poor fit]. The AC50 under setting [1] is 0.366 µM [falling, full curve].
On to `Cc1ccccc1OCC(=O)OCC(=O)Nc1ccc(Cl)cn1`, for which the cell number change amounted to 8.07%. In addition, the AC50 under setting [2] was 1.84 µM [falling, partial curve]. Under setting [1], the AC50 is 2.06 µM [falling, partial curve].
Take `CCOC(=O)N1CCN(C(=O)CN(c2ccccc2)S(C)(=O)=O)CC1`: the AC50 is, setting by setting: under setting [2], 3.66 µM [falling, single point]; under setting [1], 6.51 µM [falling, partial curve, poor fit].
Regarding `Nc1ccc(S(=O)(=O)NC2(C(F)(F)F)NC(=O)N(c3ccc(F)cc3)C2=O)cc1` (stereo not drawn), the cell number change worked out at 1.28%.
For `O=C(Nc1ccc(OCc2ccccc2)cc1)c1cccs1`, the cell number change was -3.28%. The concentration at half-maximal activity (AC50) under setting [1] is 29.1 µM [falling, single point].
As to `Cc1cc(C(=O)CNCc2ccco2)c(C)n1-c1ccc(F)cc1`, the cell number change is -3.22%. Under setting [2], the AC50 was 0.82 µM [falling, full curve, poor fit]. Further, under setting [1], the AC50 is 0.517 µM [falling, full curve, poor fit].
As for `CCOC(=O)c1c(C)oc(C)c(C(=O)OCC)c1=O`, the cell number change is 10.9%. Further, under setting [1], the AC50 was 0.651 µM [falling, full curve, poor fit].
As for `O=C(CNC(=O)N1CC(=O)Nc2ccccc21)Nc1ccccc1F`, the cell number change was -4.25%.
For the molecule `Cc1cccc(C(=O)NNC(=O)c2ccc(O)cc2)c1`, the cell number change is -20.4%. In addition, the half-maximal activity concentration (AC50) under setting [1] was 0.13 µM [falling, full curve, poor fit].
With `O=c1[nH]c2ccccc2nc1/C=C/c1ccc(Cl)cc1`, the cell number change stood at 7.64%. For the same molecule, the AC50 under setting [1] is 0.651 µM [rising, single point].
In the case of `CCCn1c(N)c(NCCN2CCOCC2)c(=O)n(CC(=O)NCc2ccccc2)c1=O`, the cell number change is -10.4%. Besides, the half-maximal activity concentration (AC50) under setting [1] was 6.51 µM [falling, single point].
As to `CCc1cc2c(nc1CC)CCN(CC/C(C)=N/OC[C@H]1O[C@H](c3ccccc3)C=C[C@@H]1Oc1ccc(OC)cc1)C2`, the cell number change was -18.3%. Besides, under setting [1], the half-maximal activity concentration (AC50) was 2.59 µM [rising, single point].
As for `O=C1CC(Sc2ncn[nH]2)C(=O)N1c1ccccc1` (stereo not drawn), the cell number change is -35.1%. The AC50 under setting [2] is 6.51 µM [falling, full curve, poor fit]. Under setting [1], the AC50 is 23.1 µM [falling, partial curve].
For `O=C(CNc1cccc(S(=O)(=O)N2CCCC2)c1)Nc1ccc(C(F)(F)F)cc1`, the cell number change is -33.4%. Also, the AC50 under setting [2] was 0.0116 µM [falling, full curve, poor fit].
Turning to `COc1ccccc1C(=O)NCC(=O)NCCC(c1ccccc1)c1ccccc1`, the cell number change was -19%. In addition, the AC50 under setting [1] was 0.92 µM [falling, full curve, poor fit].
Regarding `Cc1cc(Br)c(NC(=O)Cn2c([N+](=O)[O-])cnc2C)cc1C`, the cell number change was -2.84%. Also, the AC50 under setting [1] is 3.66 µM [rising, single point].
Turning to `CC(c1ccccc1)N1CC(C(=O)N2CCN(c3ccc(F)cc3)CC2)CC1=O` (stereo not drawn), the cell number change was 4.86%. Moreover, the AC50 under setting [1] is 6.51 µM [falling, single point].
As for `CCn1nc(NC(=O)C(C)C)c2cc3cccc(C)c3nc21`, the cell number change was 6.97%. The AC50 under setting [1] is 2.31 µM [falling, partial curve].
For the molecule `O=C(COC(=O)CCc1nc2ccccc2s1)Nc1cccc(S(=O)(=O)N2CCOCC2)c1`, the cell number change is -8.69%. Under setting [1], the AC50 is 20.6 µM [rising, single point].
`COc1ccccc1CCN1C(=S)NC(C)(C)CC1(C)O` (stereo not drawn): the cell number change is 38.5%. Also, under setting [2], the AC50 was 18.4 µM [rising, single point].
As to `Cc1oc(C(C)(C)C)c(CN2CCCC2)c1C(=O)O`, the cell number change is -19.4%. Moreover, the AC50 under setting [1] is 29.1 µM [falling, single point].
Take `O=C(NCCc1ccccc1)c1c(F)c(F)c(F)c(F)c1F`: the cell number change is -4%. In addition, the AC50 under setting [1] was 0.58 µM [falling, full curve].
Consider `Nc1o[nH]c(=O)c1Cc1ccccc1`, for which the cell number change is 11.4%. Under setting [1], the half-maximal activity concentration (AC50) was 2.91 µM [rising, single point].
As to `O=C(Cn1ncc2c(=O)oc3ccccc3c21)NC1CC1`, the cell number change came out at 36.1%. The AC50 under setting [2] is 20.6 µM [rising, single point].
For `CCOCCCN(C(=O)Cn1nnc(-c2ccc(C)o2)n1)C(C(=O)NC1CCCC1)c1ccco1` (stereo not drawn), the cell number change is -6.58%.
Consider `COc1ccc(-c2nn(CC(=O)N(C)C)c(=O)c3ccccc23)cc1`, for which the cell number change was determined as 15.3%. Further, the AC50 under setting [1] was 0.411 µM [rising, single point].
Regarding `CSc1ccccc1NC(=O)c1cc(-c2cccnc2)nc2ccc(Br)cc12`, the cell number change was -28.3%. In addition, the concentration at half-maximal activity (AC50) under setting [1] is 29.1 µM [falling, single point].
Turning to `Cc1cc(C)c2[nH]c(=O)c(CN(Cc3ccco3)C(=S)NCC3CCCO3)cc2c1` (stereo not drawn), the cell number change is 26.3%. Also, under setting [1], the AC50 is 0.411 µM [rising, full curve].
In the case of `Cc1cc(C)c(OCCNC(=O)c2ccccc2Sc2ccccc2C#N)c(C)c1`, the cell number change came out at 13.3%. Under setting [1], the concentration at half-maximal activity (AC50) is 1.16 µM [falling, single point].
As for `C=CCOc1ccc(/C=C2/C(=N)N3N=C(CC(=O)N4CCCC4)SC3=NC2=O)cc1OC`, the cell number change was -13.1%. For the same molecule, the half-maximal activity concentration (AC50) under setting [1] was 29.1 µM [falling, single point].

Broadly, the AC50 is the concentration at which the activity in the assay is half-maximal. The low end stands for greater potency, the high end for weaker potency.
